PubChem BioAssay AID1259254 | NCATS | 2017
Screen: 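Genome-wide screen for genes that prevent DNA re-replication in cancer cells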 (primary screen). Cell system: human HCT116 colorectal cancer cells. Reagent: single siRNA against human genes. Timing: 3 days. Measured: 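Imaged Hoechst DNA stain sorts each cell into a cycle phase by DNA amount; per plate, G2 fraction set to 0% for non-targeting and 100% for GMNN siRNA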. Reading the numbers: G2 robust z-score and G2 cells, % of GMNN control: higher = more G2 cells, more excess DNA replication; raw share of cells in G2: higher = larger share of cells with G2 DNA content. Active means: 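Active siRNAs have a G2 robust z of 5 or more median absolute deviations over the median, which in these data means about 38% or higher of GMNN control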.
Shown is a random part of about 59,000 deposited reagents. Of all reagents, about 1,550 (2.6%) got an active call. 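G2 share is only a proxy for re-replication; each gene was hit by three separate siRNAs, and active genes were retested.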 The raw values are shown without normalisation. A number with no mark means an inactive call. Reagents against one gene are numbered here. The record does not give: the amount of reagent.

no.	Gene	siRNA no.	G2 robust z-score	G2 cells, % of GMNN control	raw share of cells in G2 (%)
1	CATSPERE	1	1.78	15.5	9.2
2	CATSPERE	2	-0.116	2.15	3.87
3	CATSPERE	3	-0.503	-0.57	3.01
4	ZNF555	1	0.0625	3.41	4.26
5	ZNF555	2	0.637	7.45	5.75
6	ZNF555	3	0.0829	3.55	4.77
7	EGFLAM	1	0.686	7.8	7.11
8	EGFLAM	2	3.52	27.7	11.9
9	EGFLAM	3	0.8	8.6	5.7
10	TBL1XR1	1	0.584	7.08	7.38
11	TBL1XR1	2	-0.262	1.12	4.79
12	TBL1XR1	3	0.992	9.94	5.1
13	BBS5	1	-0.269	1.07	4.58
14	BBS5	2	-0.0767	2.43	3.87
15	BBS5	3	-0.0481	2.63	3.53
16	GZF1	1	0.0817	3.54	4.04
17	GZF1	2	-0.586	-1.16	5.39
18	GZF1	3	5.11 (active)	38.9	15.9
19	ZNF878	1	0.341	5.36	6.2
20	ZNF878	2	-1.06	-4.52	1.69
21	ZNF878	3	1.41	12.9	7.87
22	GHDC	1	0.146	4	3.62
23	GHDC	2	0.862	9.03	7.11
24	GHDC	3	0.701	7.9	5.8
25	PKIG	1	0.221	4.52	5.41
26	PKIG	2	-0.772	-2.47	5.38
27	PKIG	3	2.15	18.1	10.2
28	NKX2-3	1	-1.04	-4.34	2.88
29	NKX2-3	2	2.03	17.2	11
30	NKX2-3	3	1.62	14.4	12.8
31	LTK	1	-1.76	-9.42	2.49
32	LTK	2	0.948	9.63	8.66
33	LTK	3	-0.75	-2.31	3.21
34	RXFP3	1	2.55	20.9	13.3
35	RXFP3	2	-0.443	-0.147	4.47
36	RXFP3	3	-0.898	-3.35	2.24
37	MYO16	1	0.0511	3.33	7.7
38	MYO16	2	-1.16	-5.21	2.41
39	MYO16	3	-1.08	-4.65	2.27
40	ELL	1	1.24	11.7	7.41
41	ELL	2	-1.7	-9.03	1.97
42	ELL	3	-0.573	-1.07	2.89
43	PRUNE1	1	-0.385	0.256	4.45
44	PRUNE1	2	-0.353	0.486	4.69
45	PRUNE1	3	-0.83	-2.87	2.12
46	MTMR8	1	-0.998	-4.06	3.48
47	MTMR8	2	3.18	25.4	11.9
48	MTMR8	3	4.36	33.7	13.6
49	NBL1	1	0.029	3.17	4.5
50	NBL1	2	-1.05	-4.44	3.08
51	NBL1	3	-0.132	2.04	5.03
52	HMGCS1	1	-0.228	1.37	6.2
53	HMGCS1	2	-0.722	-2.11	3.43
54	HMGCS1	3	1.56	13.9	10.1
55	PALD1	1	-0.581	-1.12	3.42
56	PALD1	2	0.0847	3.56	5.9
57	PALD1	3	-0.307	0.811	3.51
58	RPF2P1	1	4.64	35.6	18.1
59	RPF2P1	2	1.64	14.5	8.11
60	RPF2P1	3	0.924	9.47	6.63
61	CHRNA6	1	2.55	20.9	12.9
62	CHRNA6	2	1.19	11.3	8.62
63	CHRNA6	3	0.0931	3.62	5.79
64	SIRT6	1	-0.601	-1.26	3.32
65	SIRT6	2	-0.536	-0.805	3.95
66	SIRT6	3	2.87	23.1	16.5
67	RING1	1	-0.89	-3.29	2.15
68	RING1	2	-0.678	-1.8	4
69	RING1	3	0.991	9.94	6.71

An excerpt from above, showing only “G2 robust z-score”:
BBS5 #3	-0.0481
GZF1 #1	0.0817
GZF1 #2	-0.586
GZF1 #3	5.11 (active)
